Assay results taken from paper PMC4995097, “Talin-KANK1 interaction controls the recruitment of cortical microtubule stabilizing complexes to focal adhesions” (eLife, 2016).
Results are given in words; binding and its absence hold for the method and conditions named. Binding seen in cells or lysates may run through a third protein. These calls come from enrichment with a bait or labelling near it, and not all partners need be listed. A no says only that the protein was not detected with the bait. Where a sequence is shown, tags or fusion partners need not be part of it.

Protein sequences, listed by entry. Tags and fused reporters are not part of them.
UniProt Q7Z4S6: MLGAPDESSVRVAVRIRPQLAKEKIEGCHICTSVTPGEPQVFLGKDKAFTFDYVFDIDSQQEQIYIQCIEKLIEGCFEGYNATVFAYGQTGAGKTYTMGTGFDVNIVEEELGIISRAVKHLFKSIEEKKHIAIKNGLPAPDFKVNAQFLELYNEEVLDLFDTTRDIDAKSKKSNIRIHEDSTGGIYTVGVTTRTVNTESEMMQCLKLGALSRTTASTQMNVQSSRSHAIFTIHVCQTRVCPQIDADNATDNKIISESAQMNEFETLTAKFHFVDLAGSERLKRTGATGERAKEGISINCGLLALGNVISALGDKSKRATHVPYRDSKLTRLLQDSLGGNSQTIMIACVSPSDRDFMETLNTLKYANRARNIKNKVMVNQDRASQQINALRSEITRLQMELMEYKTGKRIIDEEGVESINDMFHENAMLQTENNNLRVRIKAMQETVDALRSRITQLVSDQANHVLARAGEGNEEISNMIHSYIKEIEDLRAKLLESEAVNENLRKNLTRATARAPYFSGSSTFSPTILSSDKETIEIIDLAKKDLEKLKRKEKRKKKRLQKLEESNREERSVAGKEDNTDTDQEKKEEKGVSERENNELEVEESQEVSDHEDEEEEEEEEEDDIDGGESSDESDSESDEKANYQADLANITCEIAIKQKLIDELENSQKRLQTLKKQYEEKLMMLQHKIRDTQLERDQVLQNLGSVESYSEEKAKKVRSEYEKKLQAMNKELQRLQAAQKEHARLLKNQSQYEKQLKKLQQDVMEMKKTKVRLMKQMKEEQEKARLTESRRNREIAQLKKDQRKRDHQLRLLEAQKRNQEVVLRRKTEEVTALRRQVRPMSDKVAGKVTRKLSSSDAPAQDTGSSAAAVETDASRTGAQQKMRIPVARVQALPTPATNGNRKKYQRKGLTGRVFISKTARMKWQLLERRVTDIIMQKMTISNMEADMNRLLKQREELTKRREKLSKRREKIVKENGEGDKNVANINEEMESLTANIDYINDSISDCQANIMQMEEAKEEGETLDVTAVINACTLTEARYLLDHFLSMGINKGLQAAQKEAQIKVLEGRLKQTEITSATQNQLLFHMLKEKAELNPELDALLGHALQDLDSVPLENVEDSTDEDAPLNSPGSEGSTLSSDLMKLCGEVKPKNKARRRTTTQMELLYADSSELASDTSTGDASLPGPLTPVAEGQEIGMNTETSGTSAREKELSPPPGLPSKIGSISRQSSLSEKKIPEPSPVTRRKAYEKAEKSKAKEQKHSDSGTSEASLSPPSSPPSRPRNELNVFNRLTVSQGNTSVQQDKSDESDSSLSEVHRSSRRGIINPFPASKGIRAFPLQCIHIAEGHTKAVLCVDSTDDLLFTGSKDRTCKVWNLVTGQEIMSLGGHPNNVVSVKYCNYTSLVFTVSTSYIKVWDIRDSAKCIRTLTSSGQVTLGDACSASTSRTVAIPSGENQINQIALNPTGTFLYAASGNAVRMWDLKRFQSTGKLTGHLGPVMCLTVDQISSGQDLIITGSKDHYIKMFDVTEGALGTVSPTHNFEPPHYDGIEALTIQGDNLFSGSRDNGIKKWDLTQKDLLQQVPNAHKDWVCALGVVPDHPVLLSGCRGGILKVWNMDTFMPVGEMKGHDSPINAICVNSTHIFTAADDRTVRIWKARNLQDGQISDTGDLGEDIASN
UniProt Q9Y4G6: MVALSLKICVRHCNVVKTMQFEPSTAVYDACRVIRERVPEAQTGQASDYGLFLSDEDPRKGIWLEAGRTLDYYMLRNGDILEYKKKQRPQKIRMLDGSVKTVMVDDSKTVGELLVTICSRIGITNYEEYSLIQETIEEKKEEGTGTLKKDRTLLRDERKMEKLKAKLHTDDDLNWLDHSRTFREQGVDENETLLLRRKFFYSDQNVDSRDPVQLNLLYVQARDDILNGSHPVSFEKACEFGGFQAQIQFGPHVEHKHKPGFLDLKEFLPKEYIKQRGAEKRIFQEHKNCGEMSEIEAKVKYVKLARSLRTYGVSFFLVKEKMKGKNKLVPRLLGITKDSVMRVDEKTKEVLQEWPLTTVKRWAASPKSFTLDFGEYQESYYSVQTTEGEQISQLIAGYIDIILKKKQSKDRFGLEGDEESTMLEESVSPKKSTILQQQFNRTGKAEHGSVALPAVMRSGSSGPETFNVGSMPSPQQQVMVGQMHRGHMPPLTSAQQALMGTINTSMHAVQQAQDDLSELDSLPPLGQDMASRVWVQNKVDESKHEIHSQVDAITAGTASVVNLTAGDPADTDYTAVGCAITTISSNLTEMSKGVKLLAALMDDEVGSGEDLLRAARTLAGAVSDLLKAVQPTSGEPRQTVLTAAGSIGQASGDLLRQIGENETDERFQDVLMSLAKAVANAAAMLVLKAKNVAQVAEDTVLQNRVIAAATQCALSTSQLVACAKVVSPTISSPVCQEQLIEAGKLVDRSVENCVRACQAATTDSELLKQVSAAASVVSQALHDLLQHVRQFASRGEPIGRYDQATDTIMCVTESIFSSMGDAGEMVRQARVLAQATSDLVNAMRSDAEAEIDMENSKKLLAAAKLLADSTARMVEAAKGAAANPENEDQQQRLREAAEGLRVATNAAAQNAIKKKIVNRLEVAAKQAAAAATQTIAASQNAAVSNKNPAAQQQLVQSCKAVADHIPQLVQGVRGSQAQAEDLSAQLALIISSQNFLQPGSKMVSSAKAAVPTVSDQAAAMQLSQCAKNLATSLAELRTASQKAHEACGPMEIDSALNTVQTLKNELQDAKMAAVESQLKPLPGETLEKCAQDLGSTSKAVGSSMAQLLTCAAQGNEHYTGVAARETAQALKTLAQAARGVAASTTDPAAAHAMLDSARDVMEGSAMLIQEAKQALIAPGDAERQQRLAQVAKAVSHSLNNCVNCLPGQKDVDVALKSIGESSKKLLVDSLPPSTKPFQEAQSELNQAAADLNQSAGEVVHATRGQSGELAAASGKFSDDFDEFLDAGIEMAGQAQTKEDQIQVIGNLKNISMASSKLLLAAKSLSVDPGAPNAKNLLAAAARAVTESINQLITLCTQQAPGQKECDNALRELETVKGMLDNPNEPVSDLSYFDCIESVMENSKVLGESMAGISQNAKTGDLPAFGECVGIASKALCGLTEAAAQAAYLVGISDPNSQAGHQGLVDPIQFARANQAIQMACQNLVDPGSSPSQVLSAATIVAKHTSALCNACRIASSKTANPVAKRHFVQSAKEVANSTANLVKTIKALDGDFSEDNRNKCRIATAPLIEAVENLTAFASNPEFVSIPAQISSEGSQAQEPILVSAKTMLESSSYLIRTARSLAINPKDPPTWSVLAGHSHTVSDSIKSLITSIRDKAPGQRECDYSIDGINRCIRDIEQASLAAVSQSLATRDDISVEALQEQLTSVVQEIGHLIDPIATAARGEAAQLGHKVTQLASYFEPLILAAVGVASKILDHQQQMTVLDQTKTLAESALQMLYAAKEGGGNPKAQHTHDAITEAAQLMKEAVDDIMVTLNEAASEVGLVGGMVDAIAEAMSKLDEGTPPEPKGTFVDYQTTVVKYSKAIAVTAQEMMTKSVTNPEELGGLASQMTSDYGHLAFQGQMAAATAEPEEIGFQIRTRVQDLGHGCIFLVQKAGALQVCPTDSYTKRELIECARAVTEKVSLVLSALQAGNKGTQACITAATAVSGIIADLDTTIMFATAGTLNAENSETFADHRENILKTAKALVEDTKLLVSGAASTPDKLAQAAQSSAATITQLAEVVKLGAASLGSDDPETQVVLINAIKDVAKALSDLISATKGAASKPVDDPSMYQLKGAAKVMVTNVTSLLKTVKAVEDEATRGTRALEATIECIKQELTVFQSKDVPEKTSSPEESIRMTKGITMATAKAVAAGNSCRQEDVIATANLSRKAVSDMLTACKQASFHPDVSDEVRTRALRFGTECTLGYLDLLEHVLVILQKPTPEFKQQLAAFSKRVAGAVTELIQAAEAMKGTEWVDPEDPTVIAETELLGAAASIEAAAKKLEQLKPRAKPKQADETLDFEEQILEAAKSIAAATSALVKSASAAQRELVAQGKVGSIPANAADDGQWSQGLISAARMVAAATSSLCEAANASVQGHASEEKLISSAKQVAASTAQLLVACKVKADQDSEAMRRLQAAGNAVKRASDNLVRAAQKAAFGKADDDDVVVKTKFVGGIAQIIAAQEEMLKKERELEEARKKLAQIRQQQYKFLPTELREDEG

Target: T1, BioGFP-tagged KANK1 (full-length) (human) (UniProt Q14678)
T1 sequence (chain, biotinylated on the Bio tag (by BirA)): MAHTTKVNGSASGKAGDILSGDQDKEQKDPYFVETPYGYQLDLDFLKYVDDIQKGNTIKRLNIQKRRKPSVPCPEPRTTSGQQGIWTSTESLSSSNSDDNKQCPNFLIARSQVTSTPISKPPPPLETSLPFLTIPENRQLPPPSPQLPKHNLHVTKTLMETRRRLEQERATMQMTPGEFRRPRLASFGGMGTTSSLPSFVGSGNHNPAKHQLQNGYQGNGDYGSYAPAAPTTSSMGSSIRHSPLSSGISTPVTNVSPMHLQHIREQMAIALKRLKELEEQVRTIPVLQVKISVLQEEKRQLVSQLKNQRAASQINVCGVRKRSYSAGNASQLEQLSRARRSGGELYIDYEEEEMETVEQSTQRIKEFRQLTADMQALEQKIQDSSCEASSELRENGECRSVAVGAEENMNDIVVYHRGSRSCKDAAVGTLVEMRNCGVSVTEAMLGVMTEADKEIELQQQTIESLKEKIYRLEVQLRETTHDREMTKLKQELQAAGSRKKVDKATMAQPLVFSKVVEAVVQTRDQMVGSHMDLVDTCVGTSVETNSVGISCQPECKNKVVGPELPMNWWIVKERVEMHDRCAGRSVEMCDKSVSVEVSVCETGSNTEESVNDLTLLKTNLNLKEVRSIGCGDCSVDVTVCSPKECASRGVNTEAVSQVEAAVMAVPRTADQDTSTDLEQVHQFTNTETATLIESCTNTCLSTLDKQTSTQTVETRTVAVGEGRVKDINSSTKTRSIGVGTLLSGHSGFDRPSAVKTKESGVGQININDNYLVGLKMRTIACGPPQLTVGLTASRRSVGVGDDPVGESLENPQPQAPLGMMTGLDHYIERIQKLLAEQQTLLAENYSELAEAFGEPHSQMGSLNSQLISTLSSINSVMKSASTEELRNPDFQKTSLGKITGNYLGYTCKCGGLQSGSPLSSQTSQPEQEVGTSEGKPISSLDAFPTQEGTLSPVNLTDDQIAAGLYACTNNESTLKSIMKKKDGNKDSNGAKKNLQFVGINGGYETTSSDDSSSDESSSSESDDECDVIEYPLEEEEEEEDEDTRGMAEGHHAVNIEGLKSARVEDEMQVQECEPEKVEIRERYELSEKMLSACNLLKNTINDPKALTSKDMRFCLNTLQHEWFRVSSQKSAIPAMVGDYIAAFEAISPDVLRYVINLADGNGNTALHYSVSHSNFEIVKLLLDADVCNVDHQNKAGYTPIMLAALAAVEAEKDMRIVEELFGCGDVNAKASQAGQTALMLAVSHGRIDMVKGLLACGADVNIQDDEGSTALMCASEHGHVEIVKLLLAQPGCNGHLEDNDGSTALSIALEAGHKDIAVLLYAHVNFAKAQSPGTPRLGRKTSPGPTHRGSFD
Assay: affinity purification with mass spectrometry; Bio-GFP-tagged KANK1 or its N- and C-terminal fragments co-expressed with biotin ligase BirA in HEK293T; streptavidin beads; endogenous preys found by nanoLC-MS/MS

| Substance | binding |
| --- | --- |
| KIF21A (endogenous, HEK293T) (from UniProt Q7Z4S6 1-1674) | binds |
| talin2 (endogenous, HEK293T) (from UniProt Q9Y4G6 1-2542) | no binding |
